Reference: US4591573A (priority 1983, dated 1986)

System: antibody to L-hyoscyamine (antiserum)
Assay type: binding, New Zealand white rabbit

With `CN1[C@@H]2CC[C@H]1C[C@@H](OC(=O)[C@H](CO)c1ccccc1)C2` [L-hyoscyamine] the “L-hyoscyamine distinguishable from zero” value was “About 25 pg/ml”, the “detection limit of L-hyoscyamine” value was 25 picograms per milliliter and the “lowest measurable concentration of L-hyoscyamine” value was 25 pg per ml. The “reliably detectable amount of L-hyoscyamine” value was 25 picograms and the “useful range of the standard curve, upper end” value was “up to 10 ng per assay tube”.
